The target of this experiment is Spa2CRU (S. cerevisiae) (UniProt P23201). Nature of the experiment: split reporter.

By UniProt entry, the sequences of proteins in these tests, tags left out. Where a name states a change or a piece, a line headed by the entry shows the natural chain unless it says otherwise.
UniProt P23201: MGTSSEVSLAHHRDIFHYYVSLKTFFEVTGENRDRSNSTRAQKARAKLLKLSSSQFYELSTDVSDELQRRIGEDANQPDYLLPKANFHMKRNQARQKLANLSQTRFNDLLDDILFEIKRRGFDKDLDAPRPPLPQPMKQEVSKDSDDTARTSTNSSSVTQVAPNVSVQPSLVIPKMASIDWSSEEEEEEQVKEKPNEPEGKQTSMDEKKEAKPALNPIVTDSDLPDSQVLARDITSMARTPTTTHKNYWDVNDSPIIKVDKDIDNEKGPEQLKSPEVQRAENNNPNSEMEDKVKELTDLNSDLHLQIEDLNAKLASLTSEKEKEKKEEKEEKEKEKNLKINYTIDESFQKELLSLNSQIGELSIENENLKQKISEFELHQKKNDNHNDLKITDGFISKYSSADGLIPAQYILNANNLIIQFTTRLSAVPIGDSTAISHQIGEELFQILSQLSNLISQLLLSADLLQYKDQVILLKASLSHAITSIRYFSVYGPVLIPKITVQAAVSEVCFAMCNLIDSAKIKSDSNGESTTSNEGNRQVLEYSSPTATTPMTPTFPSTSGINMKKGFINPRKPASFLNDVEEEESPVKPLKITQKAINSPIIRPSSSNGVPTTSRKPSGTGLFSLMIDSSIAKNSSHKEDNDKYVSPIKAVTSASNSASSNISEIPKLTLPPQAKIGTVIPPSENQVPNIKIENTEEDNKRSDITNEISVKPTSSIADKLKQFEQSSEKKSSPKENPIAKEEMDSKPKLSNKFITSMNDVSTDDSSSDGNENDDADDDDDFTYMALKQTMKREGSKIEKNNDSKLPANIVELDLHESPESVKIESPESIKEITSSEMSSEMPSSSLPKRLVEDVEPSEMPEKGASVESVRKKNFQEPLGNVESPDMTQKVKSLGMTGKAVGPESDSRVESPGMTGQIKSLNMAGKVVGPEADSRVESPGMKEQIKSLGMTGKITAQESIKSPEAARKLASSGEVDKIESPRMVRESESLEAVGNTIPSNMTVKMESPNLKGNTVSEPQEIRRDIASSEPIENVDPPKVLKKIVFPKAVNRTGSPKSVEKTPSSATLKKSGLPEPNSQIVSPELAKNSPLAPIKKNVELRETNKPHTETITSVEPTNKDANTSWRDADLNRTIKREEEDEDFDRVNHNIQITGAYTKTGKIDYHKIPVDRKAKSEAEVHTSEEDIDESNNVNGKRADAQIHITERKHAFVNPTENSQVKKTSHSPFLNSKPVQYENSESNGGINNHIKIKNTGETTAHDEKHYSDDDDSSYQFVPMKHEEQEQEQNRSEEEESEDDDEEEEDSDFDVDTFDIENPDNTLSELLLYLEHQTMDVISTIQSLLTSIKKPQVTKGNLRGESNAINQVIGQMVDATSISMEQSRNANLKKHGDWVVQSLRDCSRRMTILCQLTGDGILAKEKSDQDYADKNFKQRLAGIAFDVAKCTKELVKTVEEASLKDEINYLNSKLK
UniProt P06784: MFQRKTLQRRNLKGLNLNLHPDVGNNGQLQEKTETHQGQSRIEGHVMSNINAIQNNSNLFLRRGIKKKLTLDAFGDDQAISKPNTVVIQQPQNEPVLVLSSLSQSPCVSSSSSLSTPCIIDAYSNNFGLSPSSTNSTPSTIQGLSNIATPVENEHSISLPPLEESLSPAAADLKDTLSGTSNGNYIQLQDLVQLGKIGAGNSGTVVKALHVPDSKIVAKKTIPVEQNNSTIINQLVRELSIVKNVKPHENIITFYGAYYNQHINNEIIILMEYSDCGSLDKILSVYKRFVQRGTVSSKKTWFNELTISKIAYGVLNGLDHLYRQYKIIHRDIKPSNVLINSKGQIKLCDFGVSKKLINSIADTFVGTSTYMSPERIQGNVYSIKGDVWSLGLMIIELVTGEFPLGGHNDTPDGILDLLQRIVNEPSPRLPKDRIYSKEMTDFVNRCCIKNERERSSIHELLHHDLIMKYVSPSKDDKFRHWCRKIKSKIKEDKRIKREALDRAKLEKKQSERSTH

This passage reports binding results from publication doi:10.1101/2025.06.12.659263.

No constants are given. Whether binding was seen depends on the method and setting. Binding seen in cells or lysates may run through a third protein. A result given as binding can be weak or reduced; the word gives no strength.

Regarding “Ste7_(105-162), the N-terminal extension of Ste7_(105-162)-Spa2CRU (from UniProt P06784) (domain or fragment)”, the binding entry is on record as “binds”.
